Laboratory results reported in patent US20070207120A1, “Selective Killing Of Cancer Cells By Induction Of Acetyltransferase Via Tnf-Alpha And Il-6” (priority 2004, published 2007).
Some of these results come from one statement about several compounds together. At least one compound was matched to its structure with a doubt left.

Test system: transformed WI38 VA13 cells
Test: Cytokine and deacetylase inhibitor treatment, transformed cells
Format: cell-based, human
Details: three days of cytokine treatment in combination with deacetylase inhibitor (TSA 400 nM; CBHA 2.5 μg/ml; SAHA 5 μg/ml)
Procedure: Human cells WI38 (ATCC number CCL-75), WI38 VA13 (ECACC number 85062512), SaOS2 (ECACC number 89050205), U20S (ATCC number HTB-96), HeLa (CCL-2), HEK 293 (ATCC number CRL-1573) and Hs68 (ATCC number CRL-1635) were obtained from ATCC, ECACC or CR-UK cell services. All cells were cultured as monolayers in 10% foetal bovine serum in Dulbecco's minimal essential medium at 37° C. in 5% CO2, except SaOS2 cells which were cultured in McCoy's 5a medium supplemented with 1.5 mM L-glutamine and 15% foetal bovine serum. VA13 cells are WI38 primary fibroblasts transformed with SV40 virus and therefore share the same genetic background. To measure cell viability and total cell number, cells in suspension and adherent cells were collated and analysed by resuspending with a known concentration of CaliBRITE unlabelled beads (Becton Dickinson) plus propidium iodide and counting the number of live and dead cells per 3000 beads using a FACSCalibur flow cytometer (Becton Dickinson). Alternatively, an automated trypan blue assay using a Vi-Cell XR Cell Viability Analyzer (Beckman Coulter) was employed. […] For cytokine treatment in combination with deacetylase inhibitors, cells were harvested and counted 48 hours after addition of deacetylase inhibitor.

| SMILES | transformed cells killed |
| --- | --- |
| O=C(/C=C/c1cccc(C(=O)NO)c1)NO [CBHA, cinnamic acid bishydroxamic acid] | 80-90% |
| O=C(CCCCCCC(=O)Nc1ccccc1)NO [SAHA, suberoylanilide hydroxamic acid] | 80-90% |
